Assay results taken from PubChem BioAssay AID1347426 (Functional Genomics Laboratory (NCATS/FGL), 2020).
About 1,400 (4.5%) of roughly 31,000 sequences were called active.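 The calls were made as follows: active = median seed-adjusted z-score above 1 or below -1; inactive = the rest.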 The list shows a part of the results.

assay: Novel Modifiers of Survival Motor Neuron (SMN) Protein: Gene Identification via Genome-wide siRNA Screen; settings: HEK293T SMN2-luciferase reporter, siRNA knockdown, 72 h; actives lie on both sides;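 also: luminescence tracks full-length SMN protein made from the SMN2 reporter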
Method in brief: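 Steps: spot 1 pmol siRNA, add Lipofectamine RNAiMax in serum-free DMEM, seed HEK293T SMN2–luciferase reporter cells; incubate 72 h at 37 °C; add ONE-Glo; normalize luminescence to control siRNA, log10, MAD. Candidates: |MAD| > 1.0.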

Sequence	median seed-adjusted z-score
GCUCCUAGCUUACCUCAUATT against CLINT1	inactive: 0.332
GCAGCUCGGCUCAAACUUATT against NOTO	inactive: -0.193
CAUUCGACAUAGAAGAGUUTT against ZNF551	inactive: -0.171
CAUCCACCUUGGACCACCATT against FCRLB	inactive: -0.00684
CGAUGGACCUUGAAAUCUUTT against UEVLD	inactive: -0.0682
GGUGCAUCGUGGGAAAGAATT against RNF121	inactive: -0.53
GAGACCUAAUGUUUCAUAUTT against PRKCI	inactive: 0.386
CACUAACUGGUGUUAGGUATT against RBL2	inactive: 0.0211
GCUAUGAAGUGGACUGGAATT against SLC22A1	inactive: -0.637
GGAUGGUAUAUGGACAAGATT against ALG9	inactive: -0.267
GAAGUGUCUCCUGACCCUATT against GATA2	inactive: 0.623
GCACGUCACUUACAAUGCUTT against KCNN2	inactive: -0.0251
GGAGGUGUUUUGUUCGGAUTT against SV2C	inactive: 0.183
CCUCCAUACCAACAGCAAATT against SNX11	inactive: 0.00451
GGAUUACCUGUUACAAGAATT against PCLO	inactive: -0.734
CAAGGAUUGUGGUUAUGGATT against EDA2R	inactive: 0.424
UGUGGGAUUUGUGCAAUAATT against GPR172B	inactive: 0.184
GCUGAACAAGGGUUAUUGATT against ZFX	inactive: -0.581
GUGCUAAUCUCAAUACCGATT against ZRANB1	inactive: -0.347
GGCGGUCGUUCAAAGUCAATT against ZNF275	inactive: 0.315
GCAUAUACCGGACAAUCCATT against MTO1	inactive: -0.0252
AUGAUAAGGUGGUACUGAATT against BMP4	inactive: -0.612
GUUUUAUACACUACAGUAATT against RCBTB2	inactive: 0.235
GGAUAAGGAAUAUCAUUCATT against DNAJC9	inactive: 0.0545
AAUGGAACCUGUAAGUGUATT against GCN5L2	inactive: 0.013
GCUUGACUGAGGAAGCUCATT against ZNF648	inactive: -0.000686
CAAGUAUGAUCAGCAAUGATT against ENG	inactive: -0.254

At a glance, some entries already given:
Sequence	median seed-adjusted z-score
GCAGCUCGGCUCAAACUUATT against NOTO	inactive: -0.193
CAUUCGACAUAGAAGAGUUTT against ZNF551	inactive: -0.171
CAUCCACCUUGGACCACCATT against FCRLB	inactive: -0.00684

Later entries

Sequence	median seed-adjusted z-score
GAGUCACUUCUAAUAAACATT against FOLR2	inactive: -0.0835
CCACGUCACCAGUACUAUATT against UBA1	active: 1.34
CCAAAAAGCGCAAACUGGATT against LMNA	inactive: -0.409
GAAGCUUCAUUCCAUUAUATT against ARSK	inactive: -0.00229
GAAUCGCAAGGAUAUGAUATT against MSH2	inactive: 0
AAUUAUACCCAGCACUGUATT against RNASE6	inactive: 0.832
CAACAUUACCUGUCAUAUATT against CCNB1	inactive: 0.163
AGACCGUCUUCAUUACCUATT against HTR3C	inactive: -0.221
CCAACUCCUCUAUCCAAGATT against WFDC10A	inactive: -0.439
GGACAUAUGAGUCAAAGGATT against CTSF	inactive: 0.161
GAAACCUGCUGAUCUACGATT against CREB3L2	inactive: -0.192
GAUAUGACCGCGAAACCAATT against RPA4	inactive: 0.132
GUAUCACCUGGGUAGGAAATT against DNAJC5G	inactive: 0.0656
CACAGAAAAGUUACCUUUUTT against PRDX6	inactive: -0.0302
GGAUGUCACAUGUACUUCATT against SDCCAG10	inactive: -0.465
ACACCUACAUGAUGACGCATT against EVX2	inactive: 0.181
GAAGUACGUGAAACCAAAATT against RPN1	inactive: -0.375
ACAGUCUUCUUUUGAGAUATT against YAP1	inactive: -0.247
CAAAGACCUUUGUCGGAUATT against ATP6V1A	inactive: -0.0106
AGUGGUAGAUUUAGAAGAATT against XBP1	inactive: 0.387
GAGCUAUAAAUUGCACAAATT against PPA2	inactive: -0.497
GAAACAUCUGGUGCUAUUATT against KREMEN2	inactive: -0.0883
AUCAAGUCUUCUUACAAGATT against VDAC2	inactive: 0.648
GGAAGAAAACAGUGCCUAUTT against CA9	inactive: 0.0833
GAUUUACCCUCCGACCAUATT against SLC1A3	inactive: -0.421
GCUUUACUACAGUAUAAGATT against FKBP4	inactive: 0.283
GAAUUGCUGAUAAACCUAUTT against SMNDC1	active: -1.54
